The campaign covered roughly 53,000 sequences. About 3,700 (7%) were called active.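 How the source made its calls: active means gene knockdowns whose robust z-score for IL-1 alpha signal is at least 2 or at most -2, so actives lie on both sides; inactive means the rest.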 The list shows a part of the results.
assay: Components of the Cytosolic LPS Sensing Pathway: Gene Identification via Genome-wide siRNA Screen; details: RAW264.7 macrophages, IL-1a HTRF, actives lie on both sides, screened at 100 nM (by protocol), cells primed 5 h with Pam3CSK4 first;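 further: robust z of the log signal after scaling to non-targeting control siRNA wells of the plate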
Method in brief: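 Mouse macrophage line RAW264.7 is transfected with siRNA (100 nM final), grown 48h, primed with TLR ligand Pam3CSK4 5 h and given intracellular LipidA 24 h. IL-1a in supernatant is read by HTRF and viability by luminescence.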

Sequence	z-score
GGCCCAGGUGCUAUUCUUUTT against Slc12a3	inactive: 0.322
GGAUAUUUGAUCACUGUACTT against Vmn2r29	inactive: 1.1
GGUGCUGUUUGUAGACUCATT against Fkbp1a	inactive: 1.53
CCGCUACGACAAGGACAAGTT against Thap1	inactive: 0.897
GCAGACCAUAGAUAAUUGGTT against Casp14	inactive: -0.383
GGCCUAAUGAAUUUGGUCATT against Ubxn7	inactive: 0.93
CCCUAAUCAGUUCACCAUCTT against Tgif2	inactive: -1.68
GGACCAGGUAUUCAUGAUCTT against Sema3c	inactive: 0.976
GGAUUGGUGAUCUAUGUGUTT against Dtd2	inactive: -0.488
GCUUAUAUGGCCUGAGAGATT against Tmem199	inactive: -0.74
CCAUCCAUCAACAAAGCCATT against Pde4d	inactive: 0.919
GGAAUACAGGAAAAUCAAATT against Ell	inactive: 1.6
GGAUUAUAUGCCAAGUGAUTT against Phyh	inactive: 0.179
CGAUAAACUGGAUACCACUTT against Sntn	inactive: 0.437
GGGAAUGGAGGUCCAGAUUTT against Spatc1l	active: -2.33
GGGAUACCCGGCGUAAUCUTT against Col4a2	inactive: 1.31
GUGUGUGGAGAAGCCAGGATT against Timm8b	inactive: 0.00536
GGGAUCAGAGGAAUGUAUCTT against Herc4	inactive: -0.209
GCAUAAGCUACUGCUGACATT against Pcdha6	inactive: -0.782
GGAGAUCGAUUUGGAAAACTT against Irx3	inactive: -0.837
GGCAACAUCAGAAUUGGAATT against Clcn2	inactive: -0.958
GCUGGUCGUCAUCAAAUGUTT against 5031410I06Rik	inactive: -0.949

Sequence	z-score
GCAUCAGGCCCGUUCAGAATT against Ddx4	active: 3.23
GGAGACAGCAUUCAUUUAUTT against Wnt16	inactive: 0.94
GGGAACCUCACCAUUAUCATT against Olfr769	inactive: -0.413
GGAACUCAGAGUGUACGCATT against Arap3	inactive: 1.6
GGUUUUGCUAGUAAGAAAGTT against Trim3	inactive: -1.26
CCAUGAGACCUCUGAUAAATT against Atl3	inactive: -0.172
CGUGUGGAUUUUAAUAGAATT against Wdpcp	inactive: -0.0571
GCUGUGGUUGUCCAACAAGTT against Il17b	inactive: 0.185
GGAAUACUAUGACAGGAAGTT against Tnfrsf1b	inactive: -0.873
GGCAUCCAUCAACAACAGGTT against Ahsa1	inactive: -0.925
GGGAUUGUGUGAAUCAUACTT against Tmem230	inactive: -1.27
GGAAGAGAUCUUAAACUUATT against Trpd52l3	inactive: 1.07
GGGUAAGAAGAACAUGUAGTT against Tgfbi	inactive: -0.949
GGUGACAAAAAGUCAAAGATT against Dis3l2	inactive: -0.542
GGCAGAGACCUCAAAACCATT against Selplg	active: -2.33
GGAACUAAUUUUCACAGAGTT against Lmod2	inactive: 0.635
GCAAUAAUGAGACCUGCACTT against Edem1	inactive: -0.448
GGAGAUUACCGAAGCUGGUTT against Mpv17l2	inactive: -0.691
CGUGACCUGAAAGUAUUUGTT against Gpc3	inactive: -0.306
CCGAGCUUAUCGACAGGUATT against Stk24	inactive: 0.089
GGUAGUGGGUGUCAAUGCATT against Sfmbt1	inactive: 0.817
CGAGAAGAUUACCAUAAAUTT against Homez	inactive: -1.82

Sequence	z-score
GCUUGGAAUAUAGGUUAUATT against Praf2	inactive: 0.858
GGAACACUGUGAGAACAAGTT against Peak1	inactive: 0.124
CCAAUUUUGUCAUAGGACATT against Plbd1	inactive: -0.107
GGUCUUUGUGCCAAUAGAGTT against Orc3	inactive: -0.895
CCCAGAGCUCCAAUUGCCUTT against Olfr938	inactive: -0.713
GGAGCUCUUUGCCAAGAAUTT against Rbbp8nl	inactive: -0.0986
GGAAAUGAAGCUCAUGGAATT against Dcdc5	inactive: -1.44
GGUGCUAGGAAUGAACGGGTT against Ripply1	inactive: 0.478
UACCAGAAGUACCUGUCCCTT against Lbx1	active: 3.33
GGGAAAUGGAGAGAUUUUUTT against Tnpo1	inactive: -0.897
GACUCUUGUCCCAAGUGUUTT against Bloc1s4	inactive: 0.144
GGCACUCAAAAACUGUGAGTT against Mrps7	inactive: 0.486
CCUGACAGUAGUUACAGUATT against Olfr1080	inactive: 0.641
GGGAGGAACCUUUGAGAAUTT against Spats2	inactive: 0.0801
GGAAGCAUCAUGGAAAGGCTT against Snhg16	inactive: 1.67
GCAAACGACGAAAGUCCAATT against Usp49	inactive: -1.63
GGAAAAGAAUUUCCUCCCUTT against Aspa	inactive: -1.74
GCAGAUACUGAGAUGCUAUTT against Dkk4	active: 2.24
GGUCAAGGAGAUCACCUUCTT against Comp	inactive: -1.27
GCUUUCAAGGGAUGAUUCATT against Zc3hav1	inactive: 0.489
GGAGAAAAUAAGCUGGUAGTT against Slc35f1	active: 3.42
GCCAUGUUUAAGCAAUUGUTT against Vsx1	inactive: -0.575

Sequence	z-score
GCACUGAGCUUGACAAAGATT against Upp2	inactive: -0.174
GGGAACAUUAUGUGCUGGCTT against Pou2af1	inactive: 0.552
GCAAUGGUGGUUCUAAUAUTT against Cmya5	inactive: -0.00244
GGUGGUGAAGAAUUUUCUUTT against Serpini1	inactive: 1.89
GGUGAUAUUCUUUAAAGACTT against Mmp1b	inactive: 0.822
GCUGCACAACCUUUAUCAATT against Spata4	inactive: 1.25
GCUCCAGGGAGUUAACUGUTT against Osr2	inactive: 0.0588
CGAUGAGACCAACAUCUUUTT against Gpr162	inactive: 0.476
GGACGUGAGCUCUCUCUUCTT against Ap2b1	inactive: 1.22
GGGAAUUCGUCUCUAGAUATT against Cabyr	inactive: 1.32
CCCUCAACCCAUAAUAUUATT against Rnf115	inactive: 0.246
GGAGCGGAAUUUAUGGCGATT against Haglr	inactive: -0.866
GGGCACACUAAUCAAUGAATT against Lilrb4a	inactive: 1.25
GGGAGGACAGUCAUUGGUUTT against Phldb1	inactive: -1.84
GCUGUGAGCAAGAGUAAUCTT against Tcaf2	inactive: 0.953
GGGAAACACAAUUUACCUUTT against Elf1	active: 3.18
GGACGGGAAAUUUUUGAUCTT against Rnf149	inactive: 0.477
GGUGAUUGACUUGCCAGGATT against Fn3k	inactive: -1.53
CCGAUUCAGGUUUCUGUCUTT against Cdc25a	inactive: -1.99
GGUGAAAUACCCGUCUUAUTT against Cyp2f2	inactive: -0.64
GGACCUUAUUGAUUCUCUATT against Tex21	inactive: 1.09
GGAAAUUGGCAUCACGUUGTT against Anks3	inactive: 1.74

Sequence	z-score
GCGUGGUAUGGUAAAAGUUTT against Arx	inactive: -0.264
GCUGACUCCGUGUUUUUAATT against Arhgef18	inactive: -0.539
GCGAGGAAUAACCCAGAUCTT against Olfr503	inactive: -1.81
GGAUUUUGUGAGUGUAAGATT against Ntng1	inactive: -0.624
GGAUGAGGUUCUGAAAAUCTT against Rps2	inactive: -0.614
CCGGAGAUGGUUGCGUAGATT against Cdkn1c	inactive: 0.939
CCACCAAUGAGUACGUCUATT against Prkcsh	inactive: 0.733
GAUGUUGGCUCAUCUAGUATT against Olfr1340	inactive: -0.567
GGCAAAAUGAGUGAGAGGUTT against Ggct	inactive: 0.805
CCCAUGCUAGAGAGAAUUCTT against Zfp563	inactive: -1.09
GGAAAUUACGACAUACAAATT against Rp1	inactive: 0.935
GGAAGAAAACAAGUAAAACTT against Ccr4	inactive: -0.0454
GGAUGAAGUCUUUCACUUUTT against Eapp	inactive: 0.947
GGUGAAACAGAGCAGAAAATT against 2810004N23Rik	inactive: 0.291
CCAUACAUAUAGACAAUCCTT against AY358078	inactive: 0.796
GGCCUUUGUUUCUAAGUACTT against Plag1	inactive: -0.156
AGUUCACGUAGAACCACGCTT against Vmo1	inactive: 0.648
GGAACUCAAGUUGUCUAUGTT against Plekhb2	inactive: 0.995
CCUAUCGAGUGAAAGUAAATT against Abcg2	inactive: -0.304

As a short view, part of the list above.
Sequence	z-score
GGAAAUUGGCAUCACGUUGTT against Anks3	inactive: 1.74
GCGUGGUAUGGUAAAAGUUTT against Arx	inactive: -0.264
GCUGACUCCGUGUUUUUAATT against Arhgef18	inactive: -0.539
GCGAGGAAUAACCCAGAUCTT against Olfr503	inactive: -1.81
GGAUUUUGUGAGUGUAAGATT against Ntng1	inactive: -0.624
GGAUGAGGUUCUGAAAAUCTT against Rps2	inactive: -0.614
CCGGAGAUGGUUGCGUAGATT against Cdkn1c	inactive: 0.939
CCACCAAUGAGUACGUCUATT against Prkcsh	inactive: 0.733
GAUGUUGGCUCAUCUAGUATT against Olfr1340	inactive: -0.567
GGCAAAAUGAGUGAGAGGUTT against Ggct	inactive: 0.805
CCCAUGCUAGAGAGAAUUCTT against Zfp563	inactive: -1.09
GGAAAUUACGACAUACAAATT against Rp1	inactive: 0.935
GGAAGAAAACAAGUAAAACTT against Ccr4	inactive: -0.0454
GGAUGAAGUCUUUCACUUUTT against Eapp	inactive: 0.947
GGUGAAACAGAGCAGAAAATT against 2810004N23Rik	inactive: 0.291
CCAUACAUAUAGACAAUCCTT against AY358078	inactive: 0.796
GGCCUUUGUUUCUAAGUACTT against Plag1	inactive: -0.156
AGUUCACGUAGAACCACGCTT against Vmo1	inactive: 0.648
GGAACUCAAGUUGUCUAUGTT against Plekhb2	inactive: 0.995
CCUAUCGAGUGAAAGUAAATT against Abcg2	inactive: -0.304

From PubChem BioAssay AID1508600 (Functional Genomics Laboratory (NCATS/FGL), 2020)
